Data taken from publication PMC9992712.
These are yes or no findings as the source states them, for the method shown. In cells and extracts the contact can be indirect. Here binding means that the protein was enriched with, or labelled near, the bait; the list need not be complete. Sequences can lack the tags named with a protein.

T1: Atp6 subunit C-terminally tagged by HA-6xHis (S. cerevisiae) (UniProt P00854)
T1 sequence: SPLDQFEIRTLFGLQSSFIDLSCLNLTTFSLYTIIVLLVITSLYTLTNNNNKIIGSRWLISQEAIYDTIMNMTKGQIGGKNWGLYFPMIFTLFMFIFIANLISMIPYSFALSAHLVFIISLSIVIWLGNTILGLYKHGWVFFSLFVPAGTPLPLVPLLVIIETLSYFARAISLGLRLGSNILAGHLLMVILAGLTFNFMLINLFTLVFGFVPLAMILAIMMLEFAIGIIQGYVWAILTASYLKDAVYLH

B1: Mco10 (Mitochondrial class one protein of 10 kDa) (protein, UniProt Q3E824 1-90)
chain: MGAAYKVFGKTVQPHVLAISTFIATAAVASYFTTKPKTKNEGKNSSALSQQKSGESSNSDAMGKDDDVVKSIEGFLNDLEKDTRQDTKAN
B2: ATP synthase subunit ε/Atp15 (protein, UniProt P21306 1-62)
chain: MSAWRKAGISYAAYLNVAAQAIRSSLKTELQTASVLNRSQTDAFYTQYKNGTAASEPTPITK
B3: ATP synthase subunit e/Atp21 (protein, UniProt P81449 1-96)
chain: MSTVNVLRYSALGLGLFFGFRNDMILKCNAKKKEEQAQYEEKLKLVEEAKKEYAKLHPVVTPKDVPANASFNLEDPNIDFERVILNAVESLKEAST
B4: ATP synthase subunit k/Atp19 (protein, UniProt P81451 1-68)
chain: MGAAYHFMGKAIPPHQLAIGTLGLLGLLVVPNPFKSAKPKTVDIKTDNKDEEKFIENYLKKHSEKQDA
B5: ATPase activity inhibitor protein Inh1 (protein, UniProt P01097 23-85)
chain: SEGSTGTPRGSGSEDSFVKRERATEDFFVRQREKEQLRHLKEQLEKQRKKIDSLENKIDSMTK
B6: ATP synthase subunit g/Atp20 (protein, UniProt Q12233 1-115)
chain: MLSRIQNYTSGLVSKANLLSSKALYYGKVGAEISKQIYLKEGLQPPTVAQFKSVYSNLYKQSLNFALKPTEVLSCLKNIQKNELLKYGAYGIQLIGFYSVGEIIGRRKLVGYKHH
B7: ATP synthase subunit δ/Atp16 (protein, UniProt Q12165 23-160)
chain: AEAAAASSGLKLQFALPHETLYSGSEVTQVNLPAKSGRIGVLANHVPTVEQLLPGVVEVMEGSNSKKFFISGGFATVQPDSQLCVTAIEAFPLESFSQENIKNLLAEAKKNVSSSDAREAAEAAIQVEVLENLQSVLK
B8: ATP synthase subunit i/Atp18 (protein, UniProt P81450 1-59)
chain: MLKRFPTPILKVYWPFFVAGAAVYYGMSKAADLSSNTKEFINDPRNPRFAKGGKFVEVD

Target: T1, Atp6 subunit C-terminally tagged by HA-6xHis (S. cerevisiae)
Assay: affinity purification with mass spectrometry; Atp6-HA-6His held on Ni-NTA agarose overnight; 1% N-dodecyl-β-maltoside extract of sonicated S. cerevisiae mitochondrial membranes; beads boiled, 15% SDS-PAGE, 5-20 kDa region analysed by LC/MS

Row | binding | Molecule
1 | binds | Cyt c (S. cerevisiae)

Target: T1, Atp6 subunit C-terminally tagged by HA-6xHis (S. cerevisiae)
Assay: as above
Remark: another data set of the same source

Row | binding | Molecule
2 | binds | B1
3 | binds | B2
4 | binds | B3
5 | binds | B4
6 | binds | B5
7 | binds | B6
8 | binds | B7
9 | binds | B8
